Source: PMC4079752 (Clinical cancer research : an official journal of the …, 2014)

Protein sequences, listed by entry. Tags and fused reporters are not part of them. Lines headed by an entry give the natural chain unless they say otherwise; changes in a name come on top.
UniProt P05804: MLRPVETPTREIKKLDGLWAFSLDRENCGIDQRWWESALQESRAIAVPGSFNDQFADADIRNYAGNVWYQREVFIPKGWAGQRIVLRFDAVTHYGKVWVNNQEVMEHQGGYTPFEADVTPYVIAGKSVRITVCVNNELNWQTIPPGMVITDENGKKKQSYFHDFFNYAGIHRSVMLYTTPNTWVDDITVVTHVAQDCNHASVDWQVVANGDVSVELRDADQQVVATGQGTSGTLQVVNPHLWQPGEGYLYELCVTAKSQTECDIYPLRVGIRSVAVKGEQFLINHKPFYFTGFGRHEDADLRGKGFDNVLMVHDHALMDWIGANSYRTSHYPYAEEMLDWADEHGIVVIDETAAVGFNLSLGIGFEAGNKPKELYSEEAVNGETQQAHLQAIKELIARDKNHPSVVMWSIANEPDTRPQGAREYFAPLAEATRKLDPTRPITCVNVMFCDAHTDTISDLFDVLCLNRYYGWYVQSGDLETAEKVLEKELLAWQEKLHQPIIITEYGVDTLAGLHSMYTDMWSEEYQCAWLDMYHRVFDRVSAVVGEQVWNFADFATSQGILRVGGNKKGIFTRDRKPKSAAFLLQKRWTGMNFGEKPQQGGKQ

Target: bacterial β-glucuronidase (E. coli GUS) (Escherichia coli, UniProt P05804)
Test: GUS enzyme activity assay with purified enzyme
Assay type: biochemical

Clc1ccc2c(c1)C(N1CCNCC1)=Nc1ccccc1O2 [AMOX, amoxapine]
IC50: 0.796 ± 0.029 µM
